According to PubChem BioAssay AID330 (DTP/NCI, 2004):
The list is a part of this screen's results and no random one: it is rich in T/C values a quarter to a half above the control, in often repeated tests (any T/C) and in doses without a T/C. Further doses and runs are listed elsewhere. T/C is the treated group as % of the vehicle group. Some entries give survivors of the animals treated and no T/C: the source files T/C as zero there, which appears to mark a toxic dose or a test without result, not a measured value. Some survivor counts are full or nearly so, which does not show that the dose was tolerated: the source hardly ever lists a survival T/C far under the control, and the zero likely stands for such cases as well. Counts of survivors are from the toxicity check (mostly the fifth day) where no day follows; animals may have died later. Schedules are NCI's codes, taken here to give the interval after Q, in days (D) or hours (H), and the number of doses after X. Some entries hold several experiments; the values are given in rising order. Where survival is the endpoint, this PubChem deposit counts one and a half times the control or more as active, and values a quarter to a half above the control carry no call in these data; other NCI protocols may use other cut-offs.

System: P388 leukemia ip, CD2F1 mice, survival T/C
Experiment: NCI In Vivo Anticancer Drug Screen. Data for tumor model P388 Leukemia (intraperitoneal) in CD2F1 (CDF1) mice
Conditions: T/C endpoint: median survival time, higher T/C = longer survival
[1] = dose: 60.0 mg/kg/injection, schedule: Q01DX005 (ip), vehicle: Klucel (hydroxypropylcellulose) (HPC)
[2] = dose: 120.0 mg/kg/injection, schedule: Q01DX005 (ip), vehicle: Klucel (hydroxypropylcellulose) (HPC)
[3] = dose: 240.0 mg/kg/injection, schedule: Q01DX005 (ip), vehicle: Klucel (hydroxypropylcellulose) (HPC)
[4] = dose: 50.0 mg/kg/injection, schedule: Q01DX005 (ip), vehicle: saline + Tween-80 + alcohol
[5] = dose: 100.0 mg/kg/injection, schedule: Q01DX009 (ip), vehicle: saline
[6] = dose: 200.0 mg/kg/injection, schedule: Q01DX009 (ip), vehicle: saline
[7] = dose: 400.0 mg/kg/injection, schedule: Q04DX002 (ip), vehicle: saline with Tween-80
[8] = dose: 400.0 mg/kg/injection, schedule: Q04DX002 (ip), vehicle: saline
[9] = dose: 100.0 mg/kg/injection, schedule: Q01DX009 (ip), vehicle: Klucel (hydroxypropylcellulose) (HPC)
[10] = dose: 60.0 mg/kg/injection, schedule: Q01DX005 (ip), vehicle: saline
[11] = dose: 120.0 mg/kg/injection, schedule: Q01DX005 (ip), vehicle: saline
[12] = dose: 240.0 mg/kg/injection, schedule: Q01DX005 (ip), vehicle: saline
[13] = dose: 50.0 mg/kg/injection, schedule: Q01DX009 (ip), vehicle: saline with Tween-80
[14] = dose: 100.0 mg/kg/injection, schedule: Q01DX009 (ip), vehicle: saline with Tween-80
[15] = dose: 200.0 mg/kg/injection, schedule: Q01DX009 (ip), vehicle: saline with Tween-80

SMILES: C/C(=N/NC(N)=S)c1cn[nH]c1C
- survivor count [1]: 1 of 6
- survivor count [2]: 0 of 6
- survivor count [3]: 0 of 6

SMILES: C/C(=N\NC(=S)N1CCCC1)c1cccc(C)n1
- T/C [4]: 126 % of control
- survivor count [4]: 0 of 6
- survivor count (dose: 100.0 mg/kg/injection, schedule: Q01DX005 (ip), vehicle: saline + Tween-80 + alcohol): 0 of 6 and 2 of 6
- survivor count (dose: 200.0 mg/kg/injection, schedule: Q01DX005 (ip), vehicle: saline + Tween-80 + alcohol): 0 of 6

SMILES: COC1=CC(=O)C(=O)C(C(C)(C)C)=C1
- survivor count [1]: 0 of 6 and 3 of 6
- survivor count [2]: 0 of 6
- survivor count [3]: 0 of 6

SMILES: CC(C)c1ccccc1Oc1ccccc1N=C1CCN(C)C1
- survivor count [5]: 0 of 6
- survivor count [6]: 0 of 6

SMILES: Cc1cc2c(cc1C)[n+](=O)c1c(n2[O-])CCC1
- survivor count (dose: 240.0 mg/kg/injection, schedule: Q01DX005 (ip), vehicle: saline with Tween-80): 6 of 6

SMILES: O=C1c2ccccc2C(=O)C1(Br)c1ccccc1
- survivor count [7]: 0 of 6

SMILES: CNc1nc(-c2ccccc2)c(-c2ccccc2)[nH]1
- survivor count (dose: 100.0 mg/kg/injection, schedule: Q04DX002 (ip), vehicle: saline): 0 of 6
- survivor count (dose: 200.0 mg/kg/injection, schedule: Q04DX002 (ip), vehicle: saline): 0 of 6
- survivor count [8]: 0 of 6

SMILES: O=C(CN1CCN(CCO)CC1)N1c2ccccc2Sc2ccc(C(F)(F)F)cc21
- survivor count [8]: 0 of 6

SMILES: CC1=NC(C#N)=C(C#N)N=C(C)C1
- survivor count [9]: 5 of 6

SMILES: O=C(OCC1OC(n2ccc(=S)[nH]c2=O)C(OC(=O)c2ccccc2)C1OC(=O)c1ccccc1)c1ccccc1 (stereo unspecified)
- survivor count (dose: 100.0 mg/kg/injection, schedule: Q01DX005 (ip), vehicle: saline with Tween-80): 6 of 6

SMILES: CN(C)c1ccc([N+]([O-])=Nc2ccc3ccccc3c2)cc1
- survivor count (dose: 120.0 mg/kg/injection, schedule: Q01DX005 (ip), vehicle: saline with Tween-80): 6 of 6

SMILES: O=S(=O)(n1ccnc1)C(F)(F)F
- survivor count (dose: 100.0 mg/kg/injection, schedule: Q01DX001 (ip), vehicle: saline): 0 of 6
- survivor count (dose: 200.0 mg/kg/injection, schedule: Q01DX001 (ip), vehicle: saline): 0 of 6
- survivor count (dose: 400.0 mg/kg/injection, schedule: Q01DX001 (ip), vehicle: saline): 0 of 6

SMILES: CC(=O)/C(=C\c1c(Cl)cccc1Cl)C(=O)CCN(C)C
- survivor count [10]: 1 of 6
- survivor count [11]: 0 of 6
- survivor count [12]: 0 of 6

SMILES: CCC(C)(C)NCCCCCNc1cc(OC)cc2cccnc12
- survivor count (dose: 200.0 mg/kg/injection, schedule: Q01DX005 (ip), vehicle: Klucel (hydroxypropylcellulose) (HPC)): 0 of 6

SMILES: CCCCNCC(O)c1cc2c(Cl)cc(Cl)cc2c2cc(C(F)(F)F)ccc12 (stereo unspecified)
- survivor count [13]: 6 of 6
- survivor count [14]: 1 of 6
- survivor count [15]: 0 of 6

SMILES: CN(C)N1C(=O)c2c(Cl)c(Cl)c(Cl)c(Cl)c2C1=O
- survivor count (dose: 200.0 mg/kg/injection, schedule: Q01DX005 (ip), vehicle: saline with Tween-80): 6 of 6

SMILES: COc1cccc2c1C(=O)c1c(O)c3c(c(O)c1C2=O)C[C@@](O)(C(C)=O)C[C@@H]3OC1CC(N)C(OC2CC(N)C(OC)C(C)O2)C(C)O1 (stereo partly specified)
- T/C (dose: 12.5 mg/kg/injection, schedule: Q04DX003 (ip), vehicle: water, evaluated on day 35): 126 % of control
- T/C (dose: 12.5 mg/kg/injection, schedule: Q04DX003 (ip), vehicle: water, evaluated on day 45): 126 % of control
- T/C (dose: 25.0 mg/kg/injection, schedule: Q04DX003 (ip), vehicle: water, evaluated on day 35): 132 % of control
- T/C (dose: 25.0 mg/kg/injection, schedule: Q04DX003 (ip), vehicle: water, evaluated on day 45): 146 % of control
- T/C (dose: 50.0 mg/kg/injection, schedule: Q04DX003 (ip), vehicle: water): 127 % of control

SMILES: CC(=O)OC1C=CC(=O)C1 (stereo unspecified)
- survivor count (dose: 30.0 mg/kg/injection, schedule: Q01DX005 (ip), vehicle: saline with Tween-80): 1 of 6
- survivor count [10]: 0 of 6
- survivor count [11]: 0 of 6
- survivor count [12]: 0 of 6

SMILES: C[n+]1cccc2c1C(=O)C(=O)c1c-2ccc[n+]1C
- survivor count [7]: 1 of 6

SMILES: O=NN(CCF)C(=O)NC1CCCCC1
- survivor count (dose: 25.0 mg/kg/injection, schedule: Q04DX003 (ip), vehicle: saline with Tween-80): 3 of 6
- survivor count (dose: 37.5 mg/kg/injection, schedule: Q04DX003 (ip), vehicle: saline with Tween-80): 0 of 6
- survivor count (dose: 50.0 mg/kg/injection, schedule: Q04DX003 (ip), vehicle: saline with Tween-80): 0 of 6
- survivor count (dose: 100.0 mg/kg/injection, schedule: Q04DX003 (ip), vehicle: saline with Tween-80): 0 of 6

SMILES: CCCCCCCCCCCC[N+]1(CC)CCCCC1
- survivor count (dose: 3.12 mg/kg/injection, schedule: Q01DX009 (ip), vehicle: saline): 2 of 6
- survivor count (dose: 6.25 mg/kg/injection, schedule: Q01DX009 (ip), vehicle: saline): 5 of 6
- survivor count (dose: 12.5 mg/kg/injection, schedule: Q01DX009 (ip), vehicle: saline): 2 of 6
- survivor count (dose: 50.0 mg/kg/injection, schedule: Q01DX009 (ip), vehicle: saline): 0 of 6
- survivor count [5]: 0 of 6
- survivor count [6]: 0 of 6

SMILES: CC(C)(C)SC(=O)CCl
- survivor count (dose: 400.0 mg/kg/injection, schedule: Q04DX003 (ip), vehicle: saline with Tween-80): 0 of 6

SMILES: O=P(O)(O)SP(=O)(O)O.[Ni]
- survivor count (dose: 50.0 mg/kg/injection, schedule: Q01DX001 (ip), vehicle: suspension in saline): 0 of 6
- survivor count (dose: 100.0 mg/kg/injection, schedule: Q01DX001 (ip), vehicle: suspension in saline): 0 of 6
- survivor count (dose: 200.0 mg/kg/injection, schedule: Q01DX001 (ip), vehicle: suspension in saline): 0 of 6
- survivor count (dose: 400.0 mg/kg/injection, schedule: Q01DX001 (ip), vehicle: suspension in saline): 0 of 6

SMILES: CCCCCCCOC(=O)c1ccc(O)cc1
- survivor count [15]: 5 of 6

SMILES: O=P(N1CCCCC1)(N1CC1)N1CC1
- T/C (dose: 8.33 mg/kg/injection, schedule: Q01DX009 (ip), vehicle: saline): 127 % of control
- survivor count (dose: 18.7 mg/kg/injection, schedule: Q01DX009 (ip), vehicle: saline): 6 of 6

SMILES: CC(C)(C)NCC(O)CCl (stereo unspecified)
- survivor count (dose: 400.0 mg/kg/injection, schedule: Q01DX009 (ip), vehicle: water): 1 of 6

SMILES: CN1C(=O)N(C)C2(C#N)CC2([N+](=O)[O-])C1=O (stereo unspecified)
- survivor count [13]: 0 of 6
- survivor count [14]: 0 of 6
- survivor count [15]: 0 of 6

SMILES: CN(Cc1cnc2nc(N)nc(N)c2n1)c1ccc(C(=O)NC(CCC(=O)NC(CCC(=O)O)C(=O)O)C(=O)O)cc1 (stereo unspecified)
- survivor count (dose: 1.56 mg/kg/injection, schedule: Q01DX009 (ip), vehicle: Klucel (hydroxypropylcellulose) (HPC)): 0 of 6
- survivor count (dose: 3.12 mg/kg/injection, schedule: Q01DX009 (ip), vehicle: Klucel (hydroxypropylcellulose) (HPC)): 0 of 6
- survivor count (dose: 6.25 mg/kg/injection, schedule: Q01DX009 (ip), vehicle: Klucel (hydroxypropylcellulose) (HPC)): 0 of 6 and 6 of 6
- survivor count (dose: 12.5 mg/kg/injection, schedule: Q01DX009 (ip), vehicle: Klucel (hydroxypropylcellulose) (HPC)): 0 of 6, 2 of 6, 4 of 6, 5 of 6
- survivor count (dose: 25.0 mg/kg/injection, schedule: Q01DX009 (ip), vehicle: Klucel (hydroxypropylcellulose) (HPC)): 5 of 6
- survivor count (dose: 50.0 mg/kg/injection, schedule: Q01DX009 (ip), vehicle: Klucel (hydroxypropylcellulose) (HPC)): 5 of 6
- survivor count [9]: 6 of 6
